# According to PubChem BioAssay (EPA / NIEHS):
# Amino acid sequences for entries named in this document (tags omitted). A change or cut given only in a name is not applied to a line headed by its entry.
# UniProt P20813: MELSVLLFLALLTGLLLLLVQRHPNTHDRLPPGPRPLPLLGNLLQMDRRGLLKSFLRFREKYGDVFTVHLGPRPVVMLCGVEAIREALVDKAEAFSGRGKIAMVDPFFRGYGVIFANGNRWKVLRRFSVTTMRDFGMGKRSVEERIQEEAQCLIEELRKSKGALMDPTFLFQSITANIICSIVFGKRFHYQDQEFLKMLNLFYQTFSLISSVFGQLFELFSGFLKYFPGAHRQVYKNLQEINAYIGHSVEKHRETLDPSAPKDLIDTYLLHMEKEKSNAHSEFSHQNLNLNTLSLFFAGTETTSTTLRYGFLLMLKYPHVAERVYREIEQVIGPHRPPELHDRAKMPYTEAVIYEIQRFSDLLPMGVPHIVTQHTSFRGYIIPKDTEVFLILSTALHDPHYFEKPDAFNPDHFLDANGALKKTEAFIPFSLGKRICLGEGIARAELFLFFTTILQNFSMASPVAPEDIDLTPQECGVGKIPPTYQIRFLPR
# UniProt P33261, whole entry, looked up: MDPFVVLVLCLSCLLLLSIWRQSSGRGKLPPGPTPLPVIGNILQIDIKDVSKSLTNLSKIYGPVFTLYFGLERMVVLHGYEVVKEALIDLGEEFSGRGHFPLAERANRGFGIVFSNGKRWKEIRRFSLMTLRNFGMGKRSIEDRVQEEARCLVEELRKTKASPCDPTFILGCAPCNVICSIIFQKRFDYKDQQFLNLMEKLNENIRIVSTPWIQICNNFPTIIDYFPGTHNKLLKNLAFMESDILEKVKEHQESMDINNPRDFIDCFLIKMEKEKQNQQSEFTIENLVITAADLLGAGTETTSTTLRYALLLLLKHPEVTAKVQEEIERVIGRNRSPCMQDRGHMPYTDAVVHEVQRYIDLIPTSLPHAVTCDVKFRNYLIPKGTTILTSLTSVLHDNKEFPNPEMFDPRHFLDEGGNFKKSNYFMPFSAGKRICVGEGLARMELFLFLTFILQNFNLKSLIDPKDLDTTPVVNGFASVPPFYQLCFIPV
# UniProt P04406: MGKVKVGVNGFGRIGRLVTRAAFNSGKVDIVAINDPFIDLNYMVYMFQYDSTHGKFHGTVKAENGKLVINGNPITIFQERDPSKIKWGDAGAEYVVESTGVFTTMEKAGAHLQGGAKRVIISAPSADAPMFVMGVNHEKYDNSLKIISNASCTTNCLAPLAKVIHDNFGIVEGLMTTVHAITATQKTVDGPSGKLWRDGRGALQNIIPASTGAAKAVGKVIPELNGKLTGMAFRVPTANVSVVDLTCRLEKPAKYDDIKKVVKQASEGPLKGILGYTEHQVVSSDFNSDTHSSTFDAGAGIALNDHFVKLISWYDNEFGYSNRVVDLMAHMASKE
# Where “and” joins values, the source holds several entries; their conditions need not be identical. Identical values can stand only once. The inconclusive results got no clear call from the source; some entries with a clear call stand among them for comparison. For some of these results: Potencies of inconclusive entries are doubtful fits and often do not repeat. More than one record can exist for a structure, and the calls need not agree. Calls of active or inactive are those of the source. The calls were made as follows, unless noted: active = hit-call score of the fitted dose curve at least 0.9, where 1 is the maximum; inconclusive = response in the unintended direction; inactive = score below 0.9.
# Experiments:
# [1] = read-out: xenobiotic metabolism (CYP1A2), CYP1A2 (gene 1544); experiment: CLD_CYP1A2_6hr: CellzDirect (CLD) Gene Expression Assay for xenobiotic metabolism (CYP1A2) at 6 hours (AID 2283663);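 as to AC50: potency is for induction meaning a rise in mRNA above DMSO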
# Procedure, shortened: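 Primary human hepatocytes from two donor preparations, dosed daily with multiple concentrations in 0.2% DMSO and harvested at 6 h. CYP1A2 mRNA induction measured by chemiluminescent qNPA, gain of signal fitted against DMSO; cytotoxicity flagged morphologically.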
# [2] = read-out: xenobiotic metabolism (CYP2C9), CYP2C9 (gene 1559); experiment: CLD_CYP2C9_6hr: CellzDirect (CLD) Gene Expression Assay for xenobiotic metabolism (CYP2C9) at 6 hours (AID 2283664)
# Procedure, shortened: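 Primary human hepatocytes dosed daily with test chemicals at multiple concentrations; harvested at 6 h. CYP2C9 mRNA induction measured by qNPA chemiluminescence. Gain of signal fitted against 0.2% DMSO vehicle; cytotoxicity annotated from phase-contrast morphology.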
# [3] = Tanguay_ZF_120hpf_TR_legacy: (Legacy) Oregon State University Tanguay Lab 120 Hour Post-fertilization zebrafish Assay for Touch Response (AID 2283667)
# Procedure, shortened: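 Tropical 5D wild-type zebrafish embryos statically exposed to 120 hpf at 28°C, sealed and dark-covered, 0.64% DMSO final; touch response scored as present/absent by brightfield microscopy at 120 hpf. Trimethyltin chloride 5 uM positive control; dead embryos not scored.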
# [4] = CLD_ACTIN_24hr: CellzDirect (CLD) Gene Expression Assay for Baseline Control (Actin) at 24 hours (AID 2283670)
# Procedure, shortened: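 Primary human hepatocytes dosed over multiple concentrations with 0.2% DMSO vehicle; actin mRNA measured at 24 h by qNPA chemiluminescence. Background control endpoint, fitted as gain of signal versus DMSO.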
# [5] = read-out: xenobiotic metabolism (CYP1A1), CYP1A1 (gene 1543); experiment: CLD_CYP1A1_24hr: CellzDirect (CLD) Gene Expression Assay for xenobiotic metabolism (CYP1A1) at 24 hours (AID 2283673);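 also: CYP1A1 mRNA level by quantitative nuclease protection with chemiluminescence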
# Procedure, shortened: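 Primary human hepatocytes dosed daily with fresh solutions in 0.2% DMSO vehicle. mRNA measured at 24 h by quantitative nuclease protection assay with chemiluminescence; gain-of-signal fit versus DMSO, with morphology-based cytotoxicity flags.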
# [6] = read-out: HMG-CoA synthase (HMGCS2), HMGCS2 (gene 3158); experiment: CLD_HMGCS2_6hr: CellzDirect (CLD) Gene Expression Assay for HMG-CoA synthase (HMGCS2) at 6 hours (AID 2283682);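 also: actives raise HMGCS2 transcript above the 0.2% DMSO vehicle baseline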
# Procedure, shortened: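 Primary human hepatocytes dosed daily with fresh chemical, 0.2% DMSO vehicle; HMGCS2 mRNA measured at 6 h by qNPA chemiluminescence. Gain of signal fitted against DMSO; cytotoxicity flagged from phase-contrast morphology.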
# [7] = read-out: xenobiotic metabolism (CYP1A2), CYP1A2 (gene 1544); experiment: CLD_CYP1A2_24hr: CellzDirect (CLD) Gene Expression Assay for xenobiotic metabolism (CYP1A2) at 24 hours (AID 2283683)
# Procedure, shortened: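 Primary human hepatocytes from two donor preparations dosed daily with multiple concentrations of chemical, 0.2% DMSO vehicle. CYP1A2 mRNA at 24 h quantified by qNPA chemiluminescence; gain of signal analyzed relative to DMSO. Cytotoxicity flagged by phase-contrast morphology.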
# [8] = read-out: ABC Transporter (ABCB1), ABCB1 (gene 5243); experiment: CLD_ABCB1_24hr: CellzDirect (CLD) Gene Expression Assay for ABC Transporter (ABCB1) at 24 hours (AID 2283684);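 as to AC50: potency for increase in ABCB1 mRNA relative to DMSO vehicle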
# Procedure, shortened: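 Primary human hepatocytes, two donor preparations, dosed daily with fresh solutions; vehicle 0.2% DMSO; harvested at 24 h. ABCB1 mRNA measured by quantitative nuclease protection assay (chemiluminescence); morphology-based cytotoxicity annotated.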
# [9] = read-out: organic anion transporter (SLCO1B1), SLCO1B1 (gene 10599); experiment: CLD_SLCO1B1_6hr: CellzDirect (CLD) Gene Expression Assay for organic anion transporter (SLCO1B1) at 6 hours (AID 2283668);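 also: active means mRNA induction above DMSO baseline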
# Procedure, shortened: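 Primary human hepatocytes dosed daily with test chemicals (multiple concentrations) in 0.2% DMSO vehicle; harvested at 6 h. SLCO1B1 mRNA quantified by qNPA chemiluminescence, fitted as gain-of-signal versus DMSO; cytotoxicity from phase-contrast morphology flagged alongside.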
# [10] = read-out: glucuronosyltransferase (UGT1A1), UGT1A1 (gene 54658); experiment: CLD_UGT1A1_6hr: CellzDirect (CLD) Gene Expression Assay for glucuronosyltransferase (UGT1A1) at 6 hours (AID 2283672)
# Procedure, shortened: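 Primary human hepatocytes from two donor preparations, dosed with fresh solutions in 0.2% DMSO, harvested at 6 h. UGT1A1 mRNA measured by qNPA chemiluminescence; induction fitted upward versus DMSO.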
# [11] = read-out: Cytochrome P450 2B6 (Homo sapiens) (UniProt P20813); experiment: CLD_CYP2B6_6hr: CellzDirect (CLD) Gene Expression Assay for xenobiotic metabolism (CYP2B6) at 6 hours (AID 2283677);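 also: actives raise CYP2B6 transcript above DMSO baseline so AC50 marks an inducer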
# Procedure, shortened: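 Primary human hepatocytes dosed with chemicals at multiple concentrations, vehicle 0.2% DMSO; CYP2B6 mRNA induction measured 6 h after dosing by quantitative nuclease protection assay with chemiluminescence, gain of signal fitted relative to DMSO.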
# [12] = read-out: Cytochrome P450 2C19 (Homo sapiens) (UniProt P33261); experiment: CLD_CYP2C19_6hr: CellzDirect (CLD) Gene Expression Assay for xenobiotic metabolism (CYP2C19) at 6 hours (AID 2283678)
# Procedure, shortened: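 Primary human hepatocytes from two donor preparations were dosed daily, with 0.2% DMSO as vehicle, and harvested 6 h after dosing. CYP2C19 mRNA induction was measured by qNPA chemiluminescence and fitted as gain of signal against DMSO.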
# [13] = read-out: Glyceraldehyde-3-phosphate dehydrogenase (Homo sapiens) (UniProt P04406); experiment: CLD_GAPDH_6hr: CellzDirect (CLD) Gene Expression Assay for Baseline Control (Glyceraldehyde 3-phosphate dehydrogenase) at 6 hours (AID 2283681);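 as to outcome: active means increased signal relative to DMSO vehicle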
# Procedure, shortened: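 Primary human hepatocytes from two donor preparations, dosed at multiple concentrations with 0.2% DMSO vehicle; GAPDH mRNA measured 6 h after dosing by chemiluminescent quantitative nuclease protection assay (qNPA) on denatured lysates. Serves as background control; cytotoxicity annotated by morphology.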
# [14] = read-out: alkyl and aryl transferase (GSTA2), GSTA2 (gene 2939); experiment: CLD_GSTA2_6hr: CellzDirect (CLD) Gene Expression Assay for alkyl and aryl transferase (GSTA2) at 6 hours (AID 2283666)
# Procedure, shortened: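 Primary human hepatocytes from two donor preparations were dosed daily with fresh compound at multiple concentrations, 0.2% DMSO vehicle. GSTA2 mRNA was measured at 6 hours by qNPA chemiluminescence; induction fitted relative to DMSO, with cytotoxicity flagged morphologically.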
# [15] = read-out: sulfotransferase (SULT2A), SULT2A1 (gene 6822); experiment: CLD_SULT2A_6hr: CellzDirect (CLD) Gene Expression Assay for sulfotransferase (SULT2A) at 6 hours (AID 2283669);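 also: hits raise transcript level above the DMSO vehicle baseline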
# Procedure, shortened: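 Primary human hepatocytes from two donor preparations were dosed daily with chemicals or 0.2% DMSO and harvested at 6 h. Transcript induction read by qNPA chemiluminescence, fitted for gain of signal relative to DMSO; morphology-based cytotoxicity annotated.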
# [16] = read-out: ABC Transporter (ABCB11), ABCB11 (gene 8647); experiment: CLD_ABCB11_24hr: CellzDirect (CLD) Gene Expression Assay for ABC Transporter (ABCB11) at 24 hours (AID 2283674; active = hit-call score of the fitted dose curve at least 0.9, where 1 is the maximum; inactive = score below 0.9)
# Procedure, shortened: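 Primary human hepatocytes were dosed daily for two days, with 0.2% DMSO vehicle. ABCB11 mRNA induction was measured at 24 hours by quantitative nuclease protection assay with chemiluminescence. Gain of signal was fitted relative to DMSO.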
# [17] = read-out: ABC Transporter (ABCB11), ABCB11 (gene 8647); experiment: CLD_ABCB11_6hr: CellzDirect (CLD) Gene Expression Assay for ABC Transporter (ABCB11) at 6 hours (AID 2283675);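 also: hits raise ABCB11 mRNA level so AC50 marks induction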
# Procedure, shortened: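 Human primary hepatocytes (two donor preparations) given fresh chemical daily at multiple concentrations, vehicle 0.2% DMSO. ABCB11 mRNA induction measured 6 h after dosing by qNPA chemiluminescence versus DMSO; cytotoxicity annotated from morphology.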
# [18] = CLD_ACTIN_6hr: CellzDirect (CLD) Gene Expression Assay for Baseline Control (Actin) at 6 hours (AID 2283676);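 also: active means increased actin mRNA relative to DMSO vehicle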
# Procedure, shortened: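 Primary human hepatocytes dosed with fresh chemical solutions (vehicle 0.2% DMSO), harvested at 6 h. Actin mRNA quantified by quantitative nuclease protection assay with chemiluminescent read-out, as background control relative to DMSO.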
smiles,measurement,setting,value
CO/C=C(/C(=O)OC)c1ccccc1Oc1cc(Oc2ccccc2C#N)ncn1,AC50,[1],inconclusive: 20 µM
same,AC50,[2],inconclusive: 0.0004 µM
same,AC50,[3],active: 4.04 µM
same,AC50,[4],inconclusive: 1.9 µM
same,AC50,[5],inconclusive: 20 µM
same,AC50,[6],inconclusive: 20 µM
same,AC50,[7],inconclusive: 20 µM
same,outcome,[8],inactive
CS(=O)(=O)c1ccc(C(=O)C2C(=O)CCCC2=O)c([N+](=O)[O-])c1,outcome,[1],inactive
same,outcome,[2],inactive
same,AC50,[9],inconclusive: 20 µM
same,AC50,[10],inconclusive: 20 µM
same,AC50,[11],inconclusive: 20 µM
same,AC50,[12],inconclusive: 20 µM
same,outcome,[13],inactive
same,AC50,[6],inconclusive: 0.000701 µM
CON(C)C(=O)Nc1ccc(Cl)c(Cl)c1,AC50,[1],active: 0.752 µM
same,AC50,[2],inconclusive: 3.77 µM
same,AC50,[14],inconclusive: 4.62 µM
same,AC50,[9],inconclusive: 5.58 µM
same,AC50,[4],inconclusive: 4.28 µM
same,AC50,[12],inconclusive: 3.79 µM
same,AC50,[13],inconclusive: 4.95 µM
same,AC50,[6],inconclusive: 20 µM
same,AC50,[8],inconclusive: 4.18 µM
COc1nc(C)nc(NC(=O)NS(=O)(=O)c2ccccc2CCC(F)(F)F)n1,AC50,[1],inconclusive: 7.29 nM and active: 2.44 µM
same,AC50,[2],inconclusive: 0.00561 µM
same,AC50,[14],inconclusive: 20 µM
same,AC50,[9],inconclusive: 20 µM
same,outcome,[9],inactive
same,AC50,[15],inconclusive: 4.85 nM and inconclusive: 0.4 nM
same,outcome,[15],inactive
same,outcome,[16],inactive
same,AC50,[17],inconclusive: 20 µM and inconclusive: 124 nM
same,outcome,[13],inactive
same,AC50,[6],inconclusive: 0.0004 µM
same,AC50,[7],active: 1.7 µM and active: 11 µM
same,outcome,[7],inactive
same,AC50,[8],inconclusive: 208 nM and inconclusive: 20 µM
CN(C)C(=S)SSC(=S)N(C)C,AC50,[1],inconclusive: 3.97 µM
same,AC50,[2],inconclusive: 3.97 µM
same,AC50,[3],active: 3.26 µM
same,AC50,[15],inconclusive: 139 nM
same,AC50,[10],inconclusive: 20 µM
same,AC50,[11],inconclusive: 20 µM
same,AC50,[12],inconclusive: 20 µM
same,outcome,[6],inactive
same,AC50,[7],inconclusive: 0.0004 µM
CCCOCC(=Nc1ccc(Cl)cc1C(F)(F)F)n1ccnc1,AC50,[1],active: 1.89 µM
same,AC50,[2],inconclusive: 3.44 µM
same,outcome,[9],inactive
same,AC50,[4],inconclusive: 1.55 µM
same,outcome,[18],inactive
same,AC50,[12],inconclusive: 20 µM
same,AC50,[8],active: 32 µM
CC(C)N1C(=O)N(c2ccccc2)CSC1=NC(C)(C)C,outcome,[1],inactive
same,outcome,[2],inactive
same,AC50,[9],inconclusive: 0.00149 µM
same,AC50,[15],inconclusive: 1880 nM
same,AC50,[4],inconclusive: 4.68 µM
same,AC50,[5],inconclusive: 1.88 µM
same,AC50,[12],inconclusive: 20 µM
same,AC50,[13],inconclusive: 3.97 µM
same,AC50,[6],inconclusive: 0.027 µM
